Results taken from publication PMC7182433.
These are yes or no findings as the source states them, for the method shown. In cells and extracts the contact can be indirect. Some results given as binding are weak or reduced against the parent protein; the word gives no strength. Sequences can lack the tags named with a protein.

By UniProt entry, the sequences of proteins in these tests, tags left out.
UniProt O00506: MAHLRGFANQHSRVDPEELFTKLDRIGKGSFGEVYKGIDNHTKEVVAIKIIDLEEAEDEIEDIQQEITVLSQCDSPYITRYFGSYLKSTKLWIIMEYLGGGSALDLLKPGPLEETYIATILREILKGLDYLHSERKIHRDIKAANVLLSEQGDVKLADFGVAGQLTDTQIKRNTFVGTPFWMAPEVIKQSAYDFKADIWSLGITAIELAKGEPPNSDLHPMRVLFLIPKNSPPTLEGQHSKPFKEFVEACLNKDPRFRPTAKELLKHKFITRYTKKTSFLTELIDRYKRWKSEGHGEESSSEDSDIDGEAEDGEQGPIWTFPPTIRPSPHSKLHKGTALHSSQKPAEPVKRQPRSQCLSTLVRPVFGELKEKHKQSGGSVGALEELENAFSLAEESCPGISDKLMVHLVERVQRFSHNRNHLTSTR

T1: FLAG-MST2 wild type (human) (UniProt Q13188)
T1 sequence: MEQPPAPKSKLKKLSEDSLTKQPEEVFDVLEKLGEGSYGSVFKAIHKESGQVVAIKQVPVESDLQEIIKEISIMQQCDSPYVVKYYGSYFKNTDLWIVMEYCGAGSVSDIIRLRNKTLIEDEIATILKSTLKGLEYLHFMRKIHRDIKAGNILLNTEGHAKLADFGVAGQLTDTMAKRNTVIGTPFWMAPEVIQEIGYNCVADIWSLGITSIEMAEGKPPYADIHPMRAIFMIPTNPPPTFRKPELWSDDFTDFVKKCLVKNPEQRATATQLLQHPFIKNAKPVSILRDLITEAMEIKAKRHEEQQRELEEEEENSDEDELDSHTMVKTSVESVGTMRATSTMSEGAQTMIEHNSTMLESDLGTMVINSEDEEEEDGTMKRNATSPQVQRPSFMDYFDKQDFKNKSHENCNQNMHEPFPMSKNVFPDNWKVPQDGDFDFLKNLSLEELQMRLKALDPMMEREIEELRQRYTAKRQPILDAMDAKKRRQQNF


Biological target: T1, FLAG-MST2 wild type (human)
Assay: co-IP; anti-FLAG M2 resin IP from cleared lysates of transfected 293FT cells (20 mM Tris-HCl pH 7.5, 150 mM NaCl, 0.2% Triton X-100; 2 hr at 4°C), immunoblot; siSIKE1 or siCCM3 in Figure 2D; STK25 WT or D158N overexpressed in Figure 2-figure supplement 1

binding | Molecule
binds | STK25 (Serine/Threonine kinase 25), endogenous (from UniProt O00506 1-426) (enzyme)
binds | SLMAP (sarcolemmal membrane-associated protein), endogenous (protein, UniProt Q14BN4 1-828) MPSALAIFTCRPNSHPFQERHVYLDEPIKIGRSVARCRPAQNNATFDCKVLSRNHALVWFDHKTGKFYLQDTKSSNGTFINSQRLSRGSEESPPCEILSGDIIQFGVDVTENTRKVTHGCIVSTIKLFLPDGMEARLRSDVIHAPLPSPVDKVAANTPSMYSQELFQLSQYLQEALHREQMLEQKLATLQRLLAITQEASDTSWQALIDEDRLLSRLEVMGNQLQACSKNQTEDSLRKELIALQEDKHNYETTAKESLRRVLQEKIEVVRKLSEVERSLSNTEDECTHLKEMNERTQEELRELANKYNGAVNEIKDLSDKLKVAEGKQEEIQQKGQAEKKELQHKIDEMEEKEQELQAKIEALQADNDFTNERLTALQVRLEHLQEKTLKECSSLEHLLSKSGGDCTFIHQFIECQKKLIVEGHLTKAVEETKLSKENQTRAKESDFSDTLSPSKEKSSDDTTDAQMDEQDLNEPLAKVSLLKDDLQGAQSEIEAKQEIQHLRKELIEAQELARTSKQKCFELQALLEEERKAYRNQVEESTKQIQVLQAQLQRLHIDTENLREEKDSEITSTRDELLSARDEILLLHQAAAKVASERDTDIASLQEELKKVRAELERWRKAASEYEKEITSLQNSFQLRCQQCEDQQREEATRLQGELEKLRKEWNALETECHSLKRENVLLSSELQRQEKELHNSQKQSLELTSDLSILQMSRKELENQVGSLKEQHLRDSADLKTLLSKAENQAKDVQKEYEKTQTVLSELKLKFEMTEQEKQSITDELKQCKNNLKLLREKGNNKPWPWMPMLAALVAVTAIVLYVPGLARASP
